Measurements: PMC5021326
These are yes or no findings as the source states them, for the method shown. Binding seen in cells or lysates may run through a third protein. Some results given as binding are weak or reduced against the parent protein; the word gives no strength.

Chains of the proteins cited; added tags and fusions are not shown. Lines headed by an entry give the natural chain unless they say otherwise; changes in a name come on top. A line that says so, or that is headed by a name, gives the form on record, which may keep a tag or linker.
UniProt Q8BVK9: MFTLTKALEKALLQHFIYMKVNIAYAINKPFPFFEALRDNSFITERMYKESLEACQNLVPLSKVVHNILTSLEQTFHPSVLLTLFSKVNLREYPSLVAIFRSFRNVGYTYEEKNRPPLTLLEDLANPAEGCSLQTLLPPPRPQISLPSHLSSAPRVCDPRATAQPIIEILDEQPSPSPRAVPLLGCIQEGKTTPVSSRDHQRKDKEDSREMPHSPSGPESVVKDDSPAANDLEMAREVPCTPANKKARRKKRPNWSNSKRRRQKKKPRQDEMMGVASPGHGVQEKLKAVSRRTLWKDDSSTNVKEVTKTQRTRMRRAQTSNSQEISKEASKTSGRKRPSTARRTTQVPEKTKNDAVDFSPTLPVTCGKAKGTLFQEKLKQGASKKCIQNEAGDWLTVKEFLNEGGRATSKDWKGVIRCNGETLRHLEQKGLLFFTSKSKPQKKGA
HA-tagged Ipr1 ΔcNLS1/2-R424A-K429A mutant (Q8BVK9, form named): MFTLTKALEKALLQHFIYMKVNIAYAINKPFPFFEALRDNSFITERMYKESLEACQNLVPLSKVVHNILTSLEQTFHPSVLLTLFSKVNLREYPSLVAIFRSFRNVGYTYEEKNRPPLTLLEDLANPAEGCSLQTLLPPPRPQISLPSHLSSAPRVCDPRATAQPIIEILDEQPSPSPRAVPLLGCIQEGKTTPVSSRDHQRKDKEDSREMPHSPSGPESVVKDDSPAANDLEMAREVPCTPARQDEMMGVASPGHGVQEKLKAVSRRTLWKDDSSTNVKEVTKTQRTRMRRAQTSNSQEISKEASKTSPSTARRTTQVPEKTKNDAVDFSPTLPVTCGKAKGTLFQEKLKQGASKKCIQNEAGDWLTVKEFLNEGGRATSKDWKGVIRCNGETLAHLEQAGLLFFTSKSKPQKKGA
HA-tagged Ipr1-ΔcNLS1/2 mutant (Q8BVK9, form named): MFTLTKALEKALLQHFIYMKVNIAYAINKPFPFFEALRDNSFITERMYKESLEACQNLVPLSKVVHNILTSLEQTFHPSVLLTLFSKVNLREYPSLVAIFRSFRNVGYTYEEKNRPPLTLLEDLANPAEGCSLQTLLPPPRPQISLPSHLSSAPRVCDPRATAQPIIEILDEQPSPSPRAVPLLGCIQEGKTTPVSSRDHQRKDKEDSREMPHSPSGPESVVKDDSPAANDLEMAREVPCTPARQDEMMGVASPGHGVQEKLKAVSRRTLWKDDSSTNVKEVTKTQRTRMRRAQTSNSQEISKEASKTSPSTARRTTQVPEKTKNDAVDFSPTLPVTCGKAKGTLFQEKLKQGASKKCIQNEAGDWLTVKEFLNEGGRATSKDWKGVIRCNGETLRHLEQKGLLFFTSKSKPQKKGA
UniProt Q60960: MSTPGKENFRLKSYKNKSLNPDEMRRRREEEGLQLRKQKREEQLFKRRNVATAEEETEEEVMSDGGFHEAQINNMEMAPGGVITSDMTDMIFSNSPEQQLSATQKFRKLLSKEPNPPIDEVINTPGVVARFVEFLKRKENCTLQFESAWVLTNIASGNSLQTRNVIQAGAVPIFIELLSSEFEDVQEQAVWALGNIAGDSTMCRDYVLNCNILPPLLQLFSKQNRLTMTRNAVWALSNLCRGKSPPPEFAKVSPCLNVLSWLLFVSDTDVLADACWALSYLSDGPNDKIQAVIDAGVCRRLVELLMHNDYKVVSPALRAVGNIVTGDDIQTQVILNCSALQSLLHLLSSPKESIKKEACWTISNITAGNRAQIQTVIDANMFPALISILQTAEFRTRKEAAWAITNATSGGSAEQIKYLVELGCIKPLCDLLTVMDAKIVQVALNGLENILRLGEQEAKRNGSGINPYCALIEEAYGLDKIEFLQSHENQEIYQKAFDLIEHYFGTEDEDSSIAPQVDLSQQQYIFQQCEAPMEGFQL

Assays:
[1] = target: FLAG-tagged full-length Ipr1 (mouse intracellular pathogen resistance 1) (mouse) (UniProt Q8BVK9); assay: co-IP; lysates of co-transfected 293FT cells; Co-IP Kit (Pierce); immunoprecipitated with anti-FLAG antibody, western blot with anti-HA antibody
[2] = target: FLAG-tagged NPI-1 (importin-α5) (mouse (cDNA of RAW264.7 cells)) (UniProt Q60960); assay: as above

Row | binding [1] | binding [2] | Substance
1 | binds | – | HA-tagged full-length Ipr1 (from UniProt Q8BVK9 1-445)
2 | – | no binding | HA-tagged Ipr1 ΔcNLS1/2-R424A-K429A mutant (from UniProt Q8BVK9 1-445)
3 | – | binds | HA-tagged Ipr1-ΔcNLS1/2 mutant (from UniProt Q8BVK9 1-445)
